Experimental data published in article doi:10.1101/377465.
These are yes or no findings as the source states them, for the method shown. In cells and extracts the contact can be indirect. Some entries that bind do so weakly or less than the wild type. Sequences can lack the tags named with a protein.

Protein sequences, listed by entry. Tags and fused reporters are not part of them.
UniProt Q99755: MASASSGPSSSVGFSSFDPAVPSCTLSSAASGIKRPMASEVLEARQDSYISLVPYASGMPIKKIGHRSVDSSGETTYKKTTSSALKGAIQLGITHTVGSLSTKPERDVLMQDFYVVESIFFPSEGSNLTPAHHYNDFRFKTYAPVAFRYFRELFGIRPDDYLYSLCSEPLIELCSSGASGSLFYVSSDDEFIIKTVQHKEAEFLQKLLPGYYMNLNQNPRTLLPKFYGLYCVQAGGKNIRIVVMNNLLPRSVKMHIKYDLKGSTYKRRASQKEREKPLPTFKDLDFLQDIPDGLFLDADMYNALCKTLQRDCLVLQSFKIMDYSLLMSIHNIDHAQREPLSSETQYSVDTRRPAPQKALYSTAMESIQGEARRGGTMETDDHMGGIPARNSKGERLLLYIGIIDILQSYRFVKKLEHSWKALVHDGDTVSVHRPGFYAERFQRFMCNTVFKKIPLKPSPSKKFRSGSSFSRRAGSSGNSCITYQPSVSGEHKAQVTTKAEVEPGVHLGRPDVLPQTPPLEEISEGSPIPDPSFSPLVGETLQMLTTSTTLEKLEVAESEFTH
UniProt O60331: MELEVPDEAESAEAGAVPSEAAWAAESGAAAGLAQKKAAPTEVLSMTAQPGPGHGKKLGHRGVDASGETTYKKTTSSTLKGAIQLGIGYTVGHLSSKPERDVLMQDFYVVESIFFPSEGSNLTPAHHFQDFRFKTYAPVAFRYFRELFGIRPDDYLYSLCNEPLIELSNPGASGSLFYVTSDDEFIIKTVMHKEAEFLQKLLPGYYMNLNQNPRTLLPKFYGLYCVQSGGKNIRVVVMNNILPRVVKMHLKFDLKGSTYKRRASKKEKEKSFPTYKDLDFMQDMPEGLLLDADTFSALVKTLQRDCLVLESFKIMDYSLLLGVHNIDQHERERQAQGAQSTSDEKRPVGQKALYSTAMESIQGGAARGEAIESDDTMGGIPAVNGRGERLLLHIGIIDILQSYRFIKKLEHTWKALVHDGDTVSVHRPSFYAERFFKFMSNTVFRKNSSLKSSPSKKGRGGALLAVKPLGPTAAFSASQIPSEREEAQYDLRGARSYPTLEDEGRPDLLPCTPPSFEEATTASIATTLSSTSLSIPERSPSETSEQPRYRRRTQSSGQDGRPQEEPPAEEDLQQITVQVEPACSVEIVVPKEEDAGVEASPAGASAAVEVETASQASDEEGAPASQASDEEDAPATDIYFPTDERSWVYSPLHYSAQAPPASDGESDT
UniProt O14986: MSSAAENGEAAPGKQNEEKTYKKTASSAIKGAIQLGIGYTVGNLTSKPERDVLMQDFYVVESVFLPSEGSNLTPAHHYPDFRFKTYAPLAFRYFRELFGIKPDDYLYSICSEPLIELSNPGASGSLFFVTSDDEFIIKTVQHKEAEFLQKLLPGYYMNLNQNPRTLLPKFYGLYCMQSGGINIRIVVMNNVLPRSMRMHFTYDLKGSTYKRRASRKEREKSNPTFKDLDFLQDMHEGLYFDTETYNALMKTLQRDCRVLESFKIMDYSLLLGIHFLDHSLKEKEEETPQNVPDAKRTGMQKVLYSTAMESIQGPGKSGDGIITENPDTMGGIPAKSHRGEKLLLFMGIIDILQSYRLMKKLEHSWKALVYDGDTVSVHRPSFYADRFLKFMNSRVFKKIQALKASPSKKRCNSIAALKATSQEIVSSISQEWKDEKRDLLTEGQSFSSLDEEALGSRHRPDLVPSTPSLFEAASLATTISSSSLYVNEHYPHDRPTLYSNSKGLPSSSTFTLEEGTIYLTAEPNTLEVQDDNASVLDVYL

Experiments:
Experiment in all cases: FRET or BRET
YFP-PIP5Kα = YFP-PIP5Kα (UniProt Q99755)
GFP-PIP5Kγ90 = GFP-PIP5Kγ90 (UniProt O60331)
YFP-PIP5Kβ = YFP-PIP5Kβ (UniProt O14986)

Measured: binding

B1: mCherry-tagged phosphatidylinositol 4-phosphate 5-kinase homolog (PIPKH) (protein, UniProt Q5T9C9 1-394)
chain: MAAPSPGPREVLAPSPEAGCRAVTSSRRGLLWRLRDKQSRLGLFEISPGHELHGMTCMMQAGLWAATQVSMDHPPTGPPSRDDFSEVLTQVHEGFELGTLAGPAFAWLRRSLGLAEEDYQAALGPGGPYLQFLSTSKSKASFFLSHDQRFFLKTQGRREVQALLAHLPRYVQHLQRHPHSLLARLLGVHSLRVDRGKKTYFIVMQSVFYPAGRISERYDIKGCEVSRWVDPAPEGSPLVLVLKDLNFQGKTINLGPQRSWFLRQMELDTTFLRELNVLDYSLLIAFQRLHEDERGPGSSLIFRTARSVQGAQSPEESRAQNRRLLPDAPNALHILDGPEQRYFLGVVDLATVYGLRKRLEHLWKTLRYPGRTFSTVSPARYARRLCQWVEAHTE
binds: all assays above
